For 39 substances, crude mass and isolated mass results are on record in patent US5631222A (Kyowa Hakko Kogyo Co., Ltd., priority 1993, dated 1997).

A short description of the first data set: general procedure: Fmoc solid-phase peptide synthesis; carrier resin to which Fmoc-Trp (Fmoc-Phe, Fmoc-D-Trp) was bound; PyBOP/HOBt/NMM (fragment condensations). The following applies: whole synthesis, scale 10.2 μmol.
“HGlyAsnTrpHisGlyThrAlaProAspTrpValTyrPheAlaHisLeuAspIleIlePheOH” had a crude mass of 41.6 mg and an isolated mass of 16.6 mg.

Still in this data set, the particulars now being: whole synthesis, scale 10.4 μmol.
As for “HTrpHisGlyThrAlaProAspTrpValTyrPheAlaHisLeuAspIleIleTrpOH”, the crude mass turned out to be 24.9 mg and the isolated mass was 8.7 mg.

“HGlyAsnTrpHisGlyThrAlaProAspTrpPheAlaHisLeuAspIleIleTrpOH” returned a crude mass of 42.7 mg and an isolated mass of 10.3 mg.

Turning to “HGlyAsnTrpHisGlyThrAlaProAspTrpValTyrD-PheAlaHisLeuSerMetIleTrpOH”, the crude mass amounted to 29.0 mg and the isolated mass came out at 9.5 mg.

“HGlyAsnTrpHisGlyThrAlaProAspTrpValTyrPheAlaD-TrpNvaGluIleD-IleTrpOH” gave a crude mass of 27.3 mg and an isolated mass of 9.1 mg.

Consider “HGlyAsnTrpHisGlyGlyAlaProAspTrpValTyrPheAlaHisLeuAspIleIleTrpOH”, for which the crude mass came out at 41.5 mg and the isolated mass worked out at 21.3 mg.

As to “HGlyAsnTrpHisGlyThrAlaProAspTrpValTyrPheAlaHisLeuThrThiIleD-TrpOH”, the crude mass was found to be 26.5 mg and the isolated mass stood at 8.8 mg.

Take “HHisGlyThrAlaProAspTrpValTyrPheAlaHisLeuAspIleIleTrpOH”: the crude mass turned out to be 24.7 mg and the isolated mass was 11.5 mg.

With “HGlyAsnTrpHisGlyThrAlaProAspTrpValTyrPheAlaHisLeuThrLeuIleTrpOH”, the crude mass was 29.4 mg and the isolated mass amounted to 14.1 mg.

For “HGlyAspTrpLysGlyThrSerProAspTrpValTyrPheAlaHisLeuAsplleIleTrpOH”, the crude mass is given as 26.8 mg and the isolated mass came out at 6.3 mg.

In turn, “HGlyAsnTrpHisThrThrAlaProAspTrpValTyrPheAlaHisLeuAspIleleTrpOH” yielded a crude mass of 39.4 mg and an isolated mass of 17.9 mg.

In turn, “HAsnTrpHisGlyThrAlaProAspTrpValTyrPheAlaHisLeuAspIleIleTrpOH” showed a crude mass of 29.3 mg and an isolated mass of 4.6 mg.

As to “HGlyAsnTrpHisGlyThrAlaProAspTrpTyrPheAlaHisLeuAspIleIleTrpOH”, the crude mass was 43.4 mg and the isolated mass is on record as 5.8 mg.

On to “HCysAsnTrpHisGlyThrAlaProCysTrpValTyrPheAlaHisLeuAspIleIleTrpOH”, for which the crude mass is given as 39.5 mg.

“HGlyAsnTrpHisGlyThrAlaAlaAspTrpValTyrPheAlaHisLeuSerMetIleTrpOH” had a crude mass of 25.8 mg and an isolated mass of 7.4 mg.

Substance “HGlyAsnTrpHisGlyThrAlaProAspTrpValTyrPheAlaHisLeuGluIleIleTrpOH” returned a crude mass of 25.8 mg and an isolated mass of 8.6 mg.

For “HGlyAsnTrPHisGlyThrAlaProAspAlaValTyrPheAlaHisLeuAspIleIleTrpOH”, the crude mass turned out to be 42.0 mg and the isolated mass was 16.6 mg.

Staying with this data set, now noted: whole synthesis, scale 12.6 μmol.
“HGlyAsnTrpHisGlyThrAlaProAspTrpValTyrPheAlaHisLeuThrThiIleTrpOH” yielded a crude mass of 31.3 mg and an isolated mass of 7.6 mg.

Consider “HGlyAsnTrpHisGlyThrAlaProAspTrpValTyrPheAlaHisLeuAsnTyrIleTrpOH”, for which the crude mass was 28.4 mg and the isolated mass worked out at 13.8 mg.

With “HGlyAsnTrpHisGlyThrAlaProAspTrpValTyrPheAlaHisLeuThrMetIleTrpOH”, the crude mass was found to be 29.9 mg and the isolated mass came to 7.1 mg.

For “HGlyAsnTrpHisGlyThrAlaProAspTrpValTyrPheAlaHisLeuSerMetIleTrpOH”, the crude mass stood at 22.9 mg and the isolated mass is on record as 6.5 mg.

With “HGlyAsnTrpHisGlyThrAlaProAspTrpValTyrPheAlaHisLeuThrTyrIleTrpOH”, the crude mass was found to be 23.7 mg and the isolated mass amounted to 7.4 mg.

Substance “HCysAsnTrpHisGlyThrAlaProCysTrpValTyrPheAlaHisLeuThrLeuIleTrpOH” displayed a crude mass of 35.1 mg.

Substance “HGlyAsnTrpHisGlyThrAlaProAspTrpValTyrPheAlaHisLeuAspLeuIleTrpOH” yielded an isolated mass of 8.2 mg.

“HCysAsnTrpHisGlyThrAlaProCysTrpValTyrPheAlaHisLeuThrChaIleTrpOH” registered a crude mass of 34.2 mg.

For the substance “HGlyAsnTrpHisGlyThrAlaProAspTrpValTyrPheAlaHisLeuThrChaIleTrpOH”, the isolated mass is 6.3 mg.

“HGlyAsnTrpHisGlyThrAlaProAspTrpValTyrPheAlaHisLeuThrAbuIleTrpOH” showed an isolated mass of 5.2 mg.

Staying with this data set, now noted: whole synthesis, scale 15.6 μmol.
HTrpValTyrPheAlaHisLeuAspIleIleTrpOH had a crude mass of 40.5 mg and an isolated mass of 10.9 mg.

Still in this data set, the particulars now being: whole synthesis, scale 18.0 μmol.
As for “HCysAsnTrpLysGlyThrSerProCysTrpValTyrPheAlaHisLeuThrThiIleTrpOH”, the crude mass came to 51.5 mg.

The data set is the same for the next values; noted with them: whole synthesis, scale 18.9 μmol.
The substance “HGlyAsnTrpHisGlyThrAlaProAspTrpValTyrPheAlaD-TrpLeuThrThiIleTrpOH” displayed a crude mass of 41.0 mg and an isolated mass of 15.7 mg.

Turning to “HGlyAsnTrpHisGlyThrAlaProAspTrpValTyrPheAlaHisLeuThrPhgIleTrpOH”, the crude mass stood at 37.0 mg and the isolated mass stood at 2.2 mg.

For “HGlyAsnTrpHisGlyThrAlaProAspTrpValTyrPheAlaHisLeuThrNleIleTrpOH”, the crude mass is on record as 30.3 mg and the isolated mass is 5.5 mg.

“HGlyAsnTrpHisGlyThrAlaProAspTrpValTyrPheAlaHisLeuGlyThiIleTrpOH” returned a crude mass of 57.5 mg and an isolated mass of 15.0 mg.

The substance “HGlyAsnTrpHisGlyThrAlaProAspTrpValTyrPheAlaHisLeuThrThiD-IleTrpOH” came in with a crude mass of 49.5 mg and an isolated mass of 17.9 mg.

“HGlyAsnTrpHisGlyThrAlaProAspTrpValTyrPheD-AlaHisLeuThrThiIleTrpOH”: the crude mass amounted to 35.0 mg and the isolated mass is 7.7 mg.

Turning to “HGlyAsnTrpHisGlyThrAlaProAspTrpValTyrPheAlaHisNvaThrThiIleTrpOH”, the crude mass was 49.3 mg and the isolated mass was found to be 12.6 mg.

Still in this data set, the particulars now being: whole synthesis, scale 25.2 μmol.
With “HGlyAsnTrpLysGlyThrSerProAspTrpValTyrPheAlaHisLeuThrThiIleTrpOH”, the crude mass is on record as 46.5 mg and the isolated mass was 14.4 mg.

Staying with this data set, now noted: whole synthesis, scale 30.0 μmol.
With “HGlyAsnTrpHisGlyThrAlaProAspTrpValTyrPheAlaHisLeuThrMeIleIleTrpOH”, the crude mass is recorded as 28.6 mg and the isolated mass stood at 0.6 mg.

On to “HGlyAsnTrpHisGlyThrAlaProAspTrpValTyrPheAlaHisLeuThrMeLeuIleTrpOH”, for which the crude mass was found to be 45.3 mg and the isolated mass is on record as 2.0 mg.
